Values from PubChem BioAssay AID1259327 (Drosophila RNAi Screening Center, 2017).
Screen: 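Baseline ATP after transmembrane-protein gene knock-down with water vehicle only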. System: Drosophila S2R+ cells. Reagents: long dsRNA against Drosophila genes. Time to read-out: 5 days (water added on day 4, read one day later). Challenge: water added as vehicle, no metal, one day before read-out. Measured: 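Luciferase ATP signal per well, normalised to plate mean, duplicate average converted to z-score across plates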. Reading the numbers: ATP z-score: higher = more total ATP than typical wells; ATP luminescence: higher = more total ATP. Rule for the call: 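Called active when the ATP z-score exceeds 1.5 or falls below -1.5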. Calls: active = hit: ATP up or down; inactive = no clear ATP change.
The whole screen tested about 3,100 reagents; shown is an unselected part. Of all reagents, 378 (12%) got an active call. 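Hits include both directions; z-score sign shows ATP rise or fall; raw luminescence values are not plate-normalised.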 A plus sign joins genes that one reagent is predicted to hit. Not stated in the record: the amount of reagent.

With knock-down of Ir7d (Ionotropic receptor 7d) [DRSC18010], the record shows ATP z-score, duplicate mean 0.011; ATP luminescence, replicate 1 (RLU) = 4.43e5; ATP luminescence, replicate 2 (RLU) = 7.81e5; inactive.
PXo (P[[i]]-sensitive XPR1 orthologue) [DRSC09734] gave ATP z-score, duplicate mean 0.233; ATP luminescence, replicate 1 (RLU) = 7.68e5; ATP luminescence, replicate 2 (RLU) = 7.44e5; inactive.
Depletion of Or22b (Odorant receptor 22b) [DRSC00765] came out at: ATP z-score, duplicate mean -0.496; ATP luminescence, replicate 1 (RLU) = 6.77e5; ATP luminescence, replicate 2 (RLU) = 6.33e5; inactive.
With knock-down of Or22b (Odorant receptor 22b) [DRSC39696] the results were ATP z-score, duplicate mean -0.325; ATP luminescence, replicate 1 (RLU) = 4.44e5; ATP luminescence, replicate 2 (RLU) = 4.42e5; inactive.
Against Cnx99A (Calnexin 99A) [DRSC25426], the entry reads ATP z-score, duplicate mean -1.99; ATP luminescence, replicate 1 (RLU) = 6.24e5; ATP luminescence, replicate 2 (RLU) = 5.80e5; active.
Silencing of CG32305 [DRSC08614] resulted in: ATP z-score, duplicate mean 0.0754; ATP luminescence, replicate 1 (RLU) = 5.73e5; ATP luminescence, replicate 2 (RLU) = 6.80e5; inactive.
For CG32305 [DRSC29854] the deposit lists ATP z-score, duplicate mean 0.145; ATP luminescence, replicate 1 (RLU) = 7.15e5; ATP luminescence, replicate 2 (RLU) = 4.67e5; inactive.
Depletion of prt (portabella) [DRSC16894] resulted in: ATP z-score, duplicate mean -0.0797; ATP luminescence, replicate 1 (RLU) = 3.29e5; ATP luminescence, replicate 2 (RLU) = 6.68e5; inactive.
prt (portabella) [DRSC39457] scored ATP z-score, duplicate mean -1.41; ATP luminescence, replicate 1 (RLU) = 3.70e5; ATP luminescence, replicate 2 (RLU) = 3.50e5; inactive.
Silencing of CG42260 [DRSC04385] came out at: ATP z-score, duplicate mean -0.472; ATP luminescence, replicate 1 (RLU) = 6.55e5; ATP luminescence, replicate 2 (RLU) = 6.96e5; inactive.
Ac13E (Adenylyl cyclase 13E) [DRSC19325] gave ATP z-score, duplicate mean -0.899; ATP luminescence, replicate 1 (RLU) = 6.25e5; ATP luminescence, replicate 2 (RLU) = 8.98e5; inactive.
Ac13E (Adenylyl cyclase 13E) [DRSC27333] showed ATP z-score, duplicate mean -0.243; ATP luminescence, replicate 1 (RLU) = 1.05e6; ATP luminescence, replicate 2 (RLU) = 1.09e6; inactive.
CCKLR-17D1 (Cholecystokinin-like receptor at 17D1) [DRSC20011] showed ATP z-score, duplicate mean -0.659; ATP luminescence, replicate 1 (RLU) = 6.10e5; ATP luminescence, replicate 2 (RLU) = 7.36e5; inactive.
With knock-down of CCKLR-17D1 (Cholecystokinin-like receptor at 17D1) [DRSC20012], the screen gave ATP z-score, duplicate mean 1.53; ATP luminescence, replicate 1 (RLU) = 1.09e6; ATP luminescence, replicate 2 (RLU) = 7.13e5; active.
After knock-down of CCKLR-17D1 (Cholecystokinin-like receptor at 17D1) [DRSC28081] the results were ATP z-score, duplicate mean -0.698; ATP luminescence, replicate 1 (RLU) = 9.54e5; ATP luminescence, replicate 2 (RLU) = 1.05e6; inactive.
Against Strn-Mlck (Stretchin-Mlck) [DRSC05032] the deposit lists ATP z-score, duplicate mean 0.247; ATP luminescence, replicate 1 (RLU) = 7.81e5; ATP luminescence, replicate 2 (RLU) = 7.33e5; inactive.
Against Strn-Mlck (Stretchin-Mlck) [DRSC07471], the entry reads ATP z-score, duplicate mean -0.86; ATP luminescence, replicate 1 (RLU) = 4.72e5; ATP luminescence, replicate 2 (RLU) = 6.12e5; inactive.
With knock-down of Strn-Mlck (Stretchin-Mlck) [DRSC37023] the results were ATP z-score, duplicate mean 0.643; ATP luminescence, replicate 1 (RLU) = 7.11e5; ATP luminescence, replicate 2 (RLU) = 5.55e5; inactive.
Against asRNA:CR43429 + Impbeta11 [DRSC07525], the entry reads ATP z-score, duplicate mean -0.422; ATP luminescence, replicate 1 (RLU) = 5.94e5; ATP luminescence, replicate 2 (RLU) = 5.69e5; inactive.
Against asRNA:CR43429 + Impbeta11 [DRSC39687] the deposit lists ATP z-score, duplicate mean -0.703; ATP luminescence, replicate 1 (RLU) = 3.73e5; ATP luminescence, replicate 2 (RLU) = 4.64e5; inactive.
With knock-down of Msp300 (Muscle-specific protein 300 kDa) [DRSC00856] the results were ATP z-score, duplicate mean -0.504; ATP luminescence, replicate 1 (RLU) = 6.35e5; ATP luminescence, replicate 2 (RLU) = 7.44e5; inactive.
Msp300 (Muscle-specific protein 300 kDa) [DRSC00858] showed ATP z-score, duplicate mean 0.231; ATP luminescence, replicate 1 (RLU) = 7.16e5; ATP luminescence, replicate 2 (RLU) = 8.23e5; inactive.
With knock-down of Msp300 (Muscle-specific protein 300 kDa) [DRSC03369] the results were ATP z-score, duplicate mean 1.53; ATP luminescence, replicate 1 (RLU) = 5.33e5; ATP luminescence, replicate 2 (RLU) = 6.43e5; active.
Msp300 (Muscle-specific protein 300 kDa) [DRSC03370] gave ATP z-score, duplicate mean 1.4; ATP luminescence, replicate 1 (RLU) = 8.79e5; ATP luminescence, replicate 2 (RLU) = 8.70e5; inactive.

Limited to “ATP luminescence, replicate 1 (RLU)” (2 entries from above):
Strn-Mlck (Stretchin-Mlck) [DRSC37023] = 7.11e5
asRNA:CR43429 + Impbeta11 [DRSC07525] = 5.94e5
